Measurements: patent US6653280B2, “Antifungal polypeptide AlyAFP from Alyssum and methods for controlling plant pathogenic fungi” (Monsanto Technology LLC, priority 1996, dated 2003)

Assay: ELISA of antifungal polypeptide expression in leaves of transgenic potato plants
Set-up: species or system potato (Solanum tuberosum var. Russet Burbank)
Conditions: leaf
Experimental: Leaf samples (20 to 100 mg) were taken from transgenic plants grown to 1 to 2 inches in height. The leaf samples were ground in PBST buffer (15 μl/mg tissue) containing 1 mM KH2PO4, 10 mM Na2HPO4, 137 mM NaCl, 2.7 mM KCl, pH 7.4, and 0.05% Tween-20, and allowed to sit at 4° C. overnight. After centrifugation, 100 μl of the supernatant were used in an ELISA assay. Polyclonal antibodies against Rs-AFP1 polypeptide (SEQ ID NO:18) were prepared by Pocono Rabbit Farm (Pocono, Pa.). Wells of a Nunc Maxi-sorp 96 well plate (Nunc #4-39454) were coated with antibodies against Rs-AFP1 polypeptide by adding 100 μl of antibodies (1 mg IgG/ml) diluted 1:200 in coating buffer containing 1.59 g Na2CO3 and 2.93 g NaHCO3 per liter distilled water, pH 9.6, and incubating at 4° C. overnight. The coating solution was then removed from the wells, which were then washed three times with PBST. One hundred μl of leaf supernatant or appropriately diluted polypeptide standards in PBST supplemented with 0.2% (w/v) BSA, fraction V (Sigma, St. Louis) were added to the wells. The concentration of each polypeptide in extracts from transgenic plants was determined from standard curves constructed using varying amounts of the respective purified polypeptide. AlyAFP, Rs-AFP1, and Rs-AFP2 cross-reacted with the polyclonal antibody preparation. After overnight incubation at 4° C., the solutions were removed from the wells, and the wells were washed three times with PBST. One hundred μl of a 1:1000 dilution in PBST of a 0.5 mg/ml Rs-AFP1 antibody/alkaline phosphatase conjugate prepared according to Boorsma et al. ((1975) J. Histochem. Cytochem. 23: 200-207) were added to each well. The plate was incubated at 22° C. for 4 hours, and the wells were then washed five times with PBST. One hundred μl of a freshly prepared solution of p-nitrophenyl phosphate (1 mg/ml) (Sigma Chemical Co., St. Louis, Mo.) dissolved in 200 mM Tris buffer, pH 9, were added to each well, and the plate was incubated at 22° C. for 1 hour. The optical density at 405 nm was determined using a Thermo-max microplate reader (Molecular Devices, Menlo Park, Calif.). Plants expressing different levels of antifungal polypeptides were used for subsequent disease tests.

AlyAFP: antifungal polypeptide of 50 amino acids obtainable from flowers of Alyssum, SEQ ID NO:2 (RLCERPSGTWSGVCGNNNACRNQCRNLERAEHGSCNYVFPAHKCICYFPC)
Protein Expression (μg AFP/g tissue) (potato line 17575): 14.9 μg AFP/g tissue | Protein Expression (μg AFP/g tissue) (potato line 17578): 12.7 μg AFP/g tissue | Protein Expression (μg AFP/g tissue) (potato line 17580): 0.9 μg AFP/g tissue | Protein Expression (μg AFP/g tissue) (potato line 17581): 9.2 μg AFP/g tissue | Protein Expression (μg AFP/g tissue) (potato line 17587): 9.6 μg AFP/g tissue | Protein Expression (μg AFP/g tissue) (potato line 17589): 1.1 μg AFP/g tissue | Protein Expression (μg AFP/g tissue) (potato line 17592): 2.6 μg AFP/g tissue | Protein Expression (μg AFP/g tissue) (potato line 17593): 2.6 μg AFP/g tissue | Protein Expression (μg AFP/g tissue) (potato line 17595): 5.2 μg AFP/g tissue | Protein Expression (μg AFP/g tissue) (potato line 17618): 2.6 μg AFP/g tissue

Rs-AFP1: small cysteine-rich antifungal protein isolated from radish seed (WO 93/05153), SEQ ID NO:18 (QKLCERPSGTWSGVCGNNNACKNQCINLEKARHGSCNYVFPAHKCICYFPC)
Protein Expression (μg AFP/g tissue) (potato line 15117): 9.7 μg AFP/g tissue | Protein Expression (μg AFP/g tissue) (potato line 15120): 8.0 μg AFP/g tissue | Protein Expression (μg AFP/g tissue) (potato line 15124): 26 μg AFP/g tissue | Protein Expression (μg AFP/g tissue) (potato line 15143): 18.3 μg AFP/g tissue | Protein Expression (μg AFP/g tissue) (potato line 15154): 5.2 μg AFP/g tissue

Rs-AFP2: small cysteine-rich antifungal protein isolated from radish seed (WO 93/05153), SEQ ID NO:19 (QKLCQRPSGTWSGVCGNNNACKNQCIRLEKARHGSCNYVFPAHKCICYFPC)
Protein Expression (μg AFP/g tissue) (potato line 13500): 10.8 μg AFP/g tissue | Protein Expression (μg AFP/g tissue) (potato line 13501): 25.2 μg AFP/g tissue | Protein Expression (μg AFP/g tissue) (potato line 13503): 25.1 μg AFP/g tissue | Protein Expression (μg AFP/g tissue) (potato line 13531): 16.2 μg AFP/g tissue | Protein Expression (μg AFP/g tissue) (potato line 13532): 17.5 μg AFP/g tissue
